These results are taken from article doi:10.1101/221093.

Sequences of proteins named here, by UniProt entry; tags and fusion partners are left off.
UniProt Q99496: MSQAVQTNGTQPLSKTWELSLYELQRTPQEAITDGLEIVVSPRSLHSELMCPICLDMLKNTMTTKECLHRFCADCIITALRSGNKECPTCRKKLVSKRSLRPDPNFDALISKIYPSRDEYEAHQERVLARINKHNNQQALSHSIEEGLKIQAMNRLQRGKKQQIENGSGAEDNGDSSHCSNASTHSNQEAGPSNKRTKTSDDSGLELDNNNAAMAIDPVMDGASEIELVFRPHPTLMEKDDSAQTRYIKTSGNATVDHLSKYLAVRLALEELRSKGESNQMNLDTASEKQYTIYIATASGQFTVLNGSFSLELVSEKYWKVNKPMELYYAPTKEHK
UniProt Q9BSM1: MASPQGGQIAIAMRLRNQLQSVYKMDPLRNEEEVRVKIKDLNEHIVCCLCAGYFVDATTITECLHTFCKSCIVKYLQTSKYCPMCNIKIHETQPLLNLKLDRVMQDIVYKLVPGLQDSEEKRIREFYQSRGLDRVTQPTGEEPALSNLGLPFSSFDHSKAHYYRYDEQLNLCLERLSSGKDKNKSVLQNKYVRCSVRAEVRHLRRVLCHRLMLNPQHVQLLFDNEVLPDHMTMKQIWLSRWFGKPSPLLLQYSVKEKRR
UniProt Q93009: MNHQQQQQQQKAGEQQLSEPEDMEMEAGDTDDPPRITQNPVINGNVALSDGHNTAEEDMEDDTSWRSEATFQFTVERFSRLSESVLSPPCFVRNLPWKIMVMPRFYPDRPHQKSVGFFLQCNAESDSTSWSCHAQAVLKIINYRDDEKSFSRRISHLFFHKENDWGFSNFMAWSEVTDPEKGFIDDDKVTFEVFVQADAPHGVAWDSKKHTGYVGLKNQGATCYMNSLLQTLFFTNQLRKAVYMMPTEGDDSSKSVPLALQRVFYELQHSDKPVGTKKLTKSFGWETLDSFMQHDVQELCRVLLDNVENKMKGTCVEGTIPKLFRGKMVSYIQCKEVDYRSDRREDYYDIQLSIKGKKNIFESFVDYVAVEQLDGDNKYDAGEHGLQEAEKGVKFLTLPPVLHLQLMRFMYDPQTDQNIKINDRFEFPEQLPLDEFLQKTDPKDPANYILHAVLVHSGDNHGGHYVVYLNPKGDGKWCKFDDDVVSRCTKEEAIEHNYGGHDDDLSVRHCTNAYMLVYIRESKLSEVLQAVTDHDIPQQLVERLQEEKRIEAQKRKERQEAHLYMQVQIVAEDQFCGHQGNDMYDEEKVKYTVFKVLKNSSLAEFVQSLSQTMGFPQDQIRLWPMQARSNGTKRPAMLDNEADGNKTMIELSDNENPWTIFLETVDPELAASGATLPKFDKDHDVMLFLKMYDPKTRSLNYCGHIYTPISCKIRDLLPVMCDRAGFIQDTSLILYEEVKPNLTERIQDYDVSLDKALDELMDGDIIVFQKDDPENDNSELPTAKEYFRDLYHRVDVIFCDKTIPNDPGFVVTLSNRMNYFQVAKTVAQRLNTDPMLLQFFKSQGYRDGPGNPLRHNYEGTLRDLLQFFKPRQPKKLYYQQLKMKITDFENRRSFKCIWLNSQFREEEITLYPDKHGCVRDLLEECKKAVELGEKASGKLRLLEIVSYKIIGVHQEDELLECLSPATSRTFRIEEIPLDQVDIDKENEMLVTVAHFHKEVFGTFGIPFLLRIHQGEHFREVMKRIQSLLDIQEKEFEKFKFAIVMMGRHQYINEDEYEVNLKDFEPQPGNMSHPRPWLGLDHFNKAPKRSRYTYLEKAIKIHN

Holding throughout (experiment): co-IP
The target of one assay is EGFP-RING1B (UniProt Q99496).
The target in the next assay is PCGF1-EGFP (UniProt Q9BSM1).
For assay [1], the target named is T1, PCGF2 (bait of the pull out) (UniProt P35227).
T1 sequence: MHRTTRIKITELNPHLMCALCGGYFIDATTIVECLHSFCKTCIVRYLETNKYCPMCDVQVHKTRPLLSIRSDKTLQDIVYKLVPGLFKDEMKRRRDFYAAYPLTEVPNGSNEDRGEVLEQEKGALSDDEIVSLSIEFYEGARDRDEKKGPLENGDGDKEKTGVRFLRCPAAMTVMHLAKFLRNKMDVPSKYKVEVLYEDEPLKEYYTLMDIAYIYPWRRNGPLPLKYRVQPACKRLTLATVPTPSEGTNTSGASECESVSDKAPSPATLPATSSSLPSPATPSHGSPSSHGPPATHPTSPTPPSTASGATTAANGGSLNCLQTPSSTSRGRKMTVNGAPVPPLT

These are yes or no findings as the source states them, for the method shown. Binding seen in cells or lysates may run through a third protein. Some results given as binding are weak or reduced against the parent protein; the word gives no strength.

For “ubiquitin-specific protease 7 (USP7) (from UniProt Q93009 1-1102) (enzyme)”, the binding result with EGFP-RING1B and with PCGF1-EGFP was “binds” in each case.
For the substance “endogenous RING1B (from UniProt Q99496 1-336)”, the binding result in assay [1] is reported as “binds”.
